From PMC9925306
These are yes or no findings as the source states them, for the method shown. In cells and extracts the contact can be indirect. Some results given as binding are weak or reduced against the parent protein; the word gives no strength. For some assays here: Sequences can lack the tags named with a protein.

The chains behind the UniProt entries cited, without tags or fusion partners.
UniProt P03129: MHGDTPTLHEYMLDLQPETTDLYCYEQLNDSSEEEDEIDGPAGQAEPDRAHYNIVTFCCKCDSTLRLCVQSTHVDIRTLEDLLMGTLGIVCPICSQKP
UniProt P06788: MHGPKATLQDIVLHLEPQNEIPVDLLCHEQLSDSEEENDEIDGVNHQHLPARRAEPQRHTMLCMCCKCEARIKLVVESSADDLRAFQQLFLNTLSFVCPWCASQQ
UniProt P06463: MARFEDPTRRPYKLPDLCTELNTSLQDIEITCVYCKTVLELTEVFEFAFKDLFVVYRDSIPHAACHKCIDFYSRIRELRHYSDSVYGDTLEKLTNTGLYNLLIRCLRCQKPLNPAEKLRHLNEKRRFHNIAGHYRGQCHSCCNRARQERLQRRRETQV
UniProt P12956: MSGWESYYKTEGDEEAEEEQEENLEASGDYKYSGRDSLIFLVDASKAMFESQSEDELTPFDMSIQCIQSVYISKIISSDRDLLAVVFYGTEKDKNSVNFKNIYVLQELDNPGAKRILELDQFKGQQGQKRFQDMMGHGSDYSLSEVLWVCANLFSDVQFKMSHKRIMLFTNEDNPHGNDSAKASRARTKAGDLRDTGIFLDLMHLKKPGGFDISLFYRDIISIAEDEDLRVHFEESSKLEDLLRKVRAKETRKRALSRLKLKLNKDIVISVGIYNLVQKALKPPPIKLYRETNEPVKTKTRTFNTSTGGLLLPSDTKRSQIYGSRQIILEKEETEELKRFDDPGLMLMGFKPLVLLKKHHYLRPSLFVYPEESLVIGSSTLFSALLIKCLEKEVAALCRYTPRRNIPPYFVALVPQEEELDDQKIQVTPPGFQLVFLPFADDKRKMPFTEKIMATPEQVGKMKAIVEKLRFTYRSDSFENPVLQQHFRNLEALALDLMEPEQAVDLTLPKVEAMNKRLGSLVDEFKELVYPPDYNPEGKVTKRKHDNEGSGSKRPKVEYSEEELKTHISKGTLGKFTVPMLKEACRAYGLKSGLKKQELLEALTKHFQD
UniProt P51948: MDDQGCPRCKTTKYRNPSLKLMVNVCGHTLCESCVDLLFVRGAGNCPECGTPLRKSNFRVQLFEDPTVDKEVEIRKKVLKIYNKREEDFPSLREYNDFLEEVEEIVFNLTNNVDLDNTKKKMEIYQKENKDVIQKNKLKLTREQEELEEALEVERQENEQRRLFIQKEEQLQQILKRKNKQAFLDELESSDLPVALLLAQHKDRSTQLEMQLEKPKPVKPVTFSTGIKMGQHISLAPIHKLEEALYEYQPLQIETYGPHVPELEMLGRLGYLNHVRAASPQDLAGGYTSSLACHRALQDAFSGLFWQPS
UniProt P03126: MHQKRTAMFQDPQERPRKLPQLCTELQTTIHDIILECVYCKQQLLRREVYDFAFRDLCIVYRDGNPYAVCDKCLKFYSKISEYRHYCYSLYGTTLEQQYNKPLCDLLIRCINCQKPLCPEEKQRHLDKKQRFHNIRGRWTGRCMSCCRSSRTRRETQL

T1: Gluc2-HPV39 E7 (HPV39) (UniProt P24837)
T1 sequence: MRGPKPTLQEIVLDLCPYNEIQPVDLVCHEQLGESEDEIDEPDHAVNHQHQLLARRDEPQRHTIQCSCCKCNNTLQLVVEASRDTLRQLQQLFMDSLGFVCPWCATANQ

T2: Gluc2-HPV33 E7 (HPV33) (UniProt P06429)
T2 sequence: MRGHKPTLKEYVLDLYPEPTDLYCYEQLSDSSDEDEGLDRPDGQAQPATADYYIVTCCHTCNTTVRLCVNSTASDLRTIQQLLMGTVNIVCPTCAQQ

B1: Gluc1-ALKBH2 (protein, UniProt Q6NS38 1-261)
chain: MDRFLVKGAQGGLLRKQEEQEPTGEEPAVLGGDKESTRKRPRREAPGNGGHSAGPSWRHIRAEGLDCSYTVLFGKAEADEIFQELEKEVEYFTGALARVQVFGKWHSVPRKQATYGDAGLTYTFSGLTLSPKPWIPVLERIRDHVSGVTGQTFNFVLINRYKDGCDHIGEHRDDERELAPGSPIASVSFGACRDFVFRHKDSRGKSPSRRVAVVRLPLAHGSLLMMNHPTNTHWYHSLPVRKKVLAPRVNLTFRKILLTKK
B2: Gluc1-DNA2 (protein, UniProt P51530 1-1060)
chain: MEQLNELELLMEKSFWEEAELPAELFQKKVVASFPRTVLSTGMDNRYLVLAVNTVQNKEGNCEKRLVITASQSLENKELCILRNDWCSVPVEPGDIIHLEGDCTSDTWIIDKDFGYLILYPDMLISGTSIASSIRCMRRAVLSETFRSSDPATRQMLIGTVLHEVFQKAINNSFAPEKLQELAFQTIQEIRHLKEMYRLNLSQDEIKQEVEDYLPSFCKWAGDFMHKNTSTDFPQMQLSLPSDNSKDNSTCNIEVVKPMDIEESIWSPRFGLKGKIDVTVGVKIHRGYKTKYKIMPLELKTGKESNSIEHRSQVVLYTLLSQERRADPEAGLLLYLKTGQMYPVPANHLDKRELLKLRNQMAFSLFHRISKSATRQKTQLASLPQIIEEEKTCKYCSQIGNCALYSRAVEQQMDCSSVPIVMLPKIEEETQHLKQTHLEYFSLWCLMLTLESQSKDNKKNHQNIWLMPASEMEKSGSCIGNLIRMEHVKIVCDGQYLHNFQCKHGAIPVTNLMAGDRVIVSGEERSLFALSRGYVKEINMTTVTCLLDRNLSVLPESTLFRLDQEEKNCDIDTPLGNLSKLMENTFVSKKLRDLIIDFREPQFISYLSSVLPHDAKDTVACILKGLNKPQRQAMKKVLLSKDYTLIVGMPGTGKTTTICTLVRILYACGFSVLLTSYTHSAVDNILLKLAKFKIGFLRLGQIQKVHPAIQQFTEQEICRSKSIKSLALLEELYNSQLIVATTCMGINHPIFSRKIFDFCIVDEASQISQPICLGPLFFSRRFVLVGDHQQLPPLVLNREARALGMSESLFKRLEQNKSAVVQLTVQYRMNSKIMSLSNKLTYEGKLECGSDKVANAVINLRHFKDVKLELEFYADYSDNPWLMGVFEPNNPVCFLNTDKVPAPEQVEKGGVSNVTEAKLIVFLTSIFVKAGCSPSDIGIIAPYRQQLKIINDLLARSIGMVEVNTVDKYQGRDKSIVLVSFVRSNKDGTVGELLKDWRRLNVAITRAKHKLILLGCVPSLNCYPPLEKLLNHLNSEKLIIDLPSREHESLCHILGDFQRE
B3: Gluc1-ENDOV (protein, UniProt Q8N8Q3 1-282)
chain: MALEAAGGPPEETLSLWKREQARLKAHVVDRDTEAWQRDPAFSGLQRVGGVDVSFVKGDSVRACASLVVLSFPELEVVYEESRMVSLTAPYVSGFLAFREVPFLLELVQQLREKEPGLMPQVLLVDGNGVLHHRGFGVACHLGVLTDLPCVGVAKKLLQVDGLENNALHKEKIRLLQTRGDSFPLLGDSGTVLGMALRSHDRSTRPLYISVGHRMSLEAAVRLTCCCCRFRIPEPVRQADICSREHIRKSLGLPGPPTPRSPKAQRPVACPKGDSGESSALC
B4: Gluc1-PARP3 (protein, UniProt Q9Y6F1 1-533)
chain: MAPKPKPWVQTEGPEKKKGRQAGREEDPFRSTAEALKAIPAEKRIIRVDPTCPLSSNPGTQVYEDYNCTLNQTNIENNNNKFYIIQLLQDSNRFFTCWNRWGRVGEVGQSKINHFTRLEDAKKDFEKKFREKTKNNWAERDHFVSHPGKYTLIEVQAEDEAQEAVVKVDRGPVRTVTKRVQPCSLDPATQKLITNIFSKEMFKNTMALMDLDVKKMPLGKLSKQQIARGFEALEALEEALKGPTDGGQSLEELSSHFYTVIPHNFGHSQPPPINSPELLQAKKDMLLVLADIELAQALQAVSEQEKTVEEVPHPLDRDYQLLKCQLQLLDSGAPEYKVIQTYLEQTGSNHRCPTLQHIWKVNQEGEEDRFQAHSKLGNRKLLWHGTNMAVVAAILTSGLRIMPHSGGRVGKGIYFASENSKSAGYVIGMKCGAHHVGYMFLGEVALGREHHINTDNPSLKSPPPGFDSVIARGHTEPDPTQDTELELDGQQVVVPQGQPVPCPEFSSSTFSQSEYLIYQESQCRLRYLLEVHL
B5: Gluc1-PMS1 (protein, UniProt P54277 1-932)
chain: MKQLPAATVRLLSSSQIITSVVSVVKELIENSLDAGATSVDVKLENYGFDKIEVRDNGEGIKAVDAPVMAMKYYTSKINSHEDLENLTTYGFRGEALGSICCIAEVLITTRTAADNFSTQYVLDGSGHILSQKPSHLGQGTTVTALRLFKNLPVRKQFYSTAKKCKDEIKKIQDLLMSFGILKPDLRIVFVHNKAVIWQKSRVSDHKMALMSVLGTAVMNNMESFQYHSEESQIYLSGFLPKCDADHSFTSLSTPERSFIFINSRPVHQKDILKLIRHHYNLKCLKESTRLYPVFFLKIDVPTADVDVNLTPDKSQVLLQNKESVLIALENLMTTCYGPLPSTNSYENNKTDVSAADIVLSKTAETDVLFNKVESSGKNYSNVDTSVIPFQNDMHNDESGKNTDDCLNHQISIGDFGYGHCSSEISNIDKNTKNAFQDISMSNVSWENSQTEYSKTCFISSVKHTQSENGNKDHIDESGENEEEAGLENSSEISADEWSRGNILKNSVGENIEPVKILVPEKSLPCKVSNNNYPIPEQMNLNEDSCNKKSNVIDNKSGKVTAYDLLSNRVIKKPMSASALFVQDHRPQFLIENPKTSLEDATLQIEELWKTLSEEEKLKYEEKATKDLERYNSQMKRAIEQESQMSLKDGRKKIKPTSAWNLAQKHKLKTSLSNQPKLDELLQSQIEKRRSQNIKMVQIPFSMKNLKINFKKQNKVDLEEKDEPCLIHNLRFPDAWLMTSKTEVMLLNPYRVEEALLFKRLLENHKLPAEPLEKPIMLTESLFNGSHYLDVLYKMTADDQRYSGSTYLSDPRLTANGFKIKLIPGVSITENYLEIEGMANCLPFYGVADLKEILNAILNRNAKEVYECRPRKVISYLEGEAVRLSRQLPMYLSKEDIQDIIYRMKHQFGNEIKECVHGRPFFHHLTYLPETT

biological target: Gluc2-HPV16 E7 (HPV16) (UniProt P03129); assay: split reporter; Gaussia princeps luciferase complementation assay (GPCA): HEK-293T co-transfected with 100 ng pSpica-N2-HPV E6 or E7 (Gluc2) and 100 ng pSpica-N1 (Gluc1, DNA repair library); 24 h, Renilla lysis buffer 30 min at room temperature, luminescence as RLU or normalized luminescence ratio (NLR)

Row | Molecule | binding
1 | B1 | binds
2 | B2 | binds
3 | B3 | binds
4 | B4 | binds
5 | B5 | binds

biological target: T1, Gluc2-HPV39 E7 (HPV39); assay: as above

Row | Molecule | binding
6 | B1 | binds
7 | B2 | binds
8 | B3 | binds
9 | B4 | binds
10 | B5 | binds

biological target: T2, Gluc2-HPV33 E7 (HPV33); assay: as above

Row | Molecule | binding
11 | B1 | binds
12 | B2 | binds
13 | B3 | binds
14 | B4 | binds
15 | B5 | binds

biological target: Gluc2-HPV18 E7 (HPV18) (UniProt P06788); assay: as above

Row | Molecule | binding
16 | B1 | binds
17 | B2 | binds
18 | B3 | binds
19 | B4 | binds
20 | B5 | binds

biological target: Gluc2-HPV18 E6 (HPV18) (UniProt P06463); assay: as above

Row | Molecule | binding
21 | Gluc1-UVSSA (from UniProt Q2YD98 1-709) | binds
22 | Gluc1-XRCC6 (from UniProt P12956 1-609) | binds
23 | Gluc1-MNAT1 (from UniProt P51948 1-309) | binds
24 | Gluc1-CLK2 (from UniProt P49760 1-499) | binds
25 | Gluc1-RPA1 (from UniProt P27694 1-616) | binds

biological target: Gluc2-HPV33 E6 (HPV33) (UniProt P06427); assay: as above

Row | Molecule | binding
26 | Gluc1-UVSSA (from UniProt Q2YD98 1-709) | binds
27 | Gluc1-XRCC6 (from UniProt P12956 1-609) | binds
28 | Gluc1-MNAT1 (from UniProt P51948 1-309) | binds
29 | Gluc1-CLK2 (from UniProt P49760 1-499) | binds
30 | Gluc1-RPA1 (from UniProt P27694 1-616) | binds

biological target: Gluc2-HPV39 E6 (HPV39) (UniProt P24835); assay: as above

Row | Molecule | binding
31 | Gluc1-UVSSA (from UniProt Q2YD98 1-709) | binds
32 | Gluc1-XRCC6 (from UniProt P12956 1-609) | binds
33 | Gluc1-MNAT1 (from UniProt P51948 1-309) | binds
34 | Gluc1-CLK2 (from UniProt P49760 1-499) | binds
35 | Gluc1-RPA1 (from UniProt P27694 1-616) | binds

biological target: Gluc2-HPV16 E6 (HPV16) (UniProt P03126); assay: as above

Row | Molecule | binding
36 | Gluc1-UVSSA (from UniProt Q2YD98 1-709) | binds
37 | Gluc1-XRCC6 (from UniProt P12956 1-609) | binds
38 | Gluc1-MNAT1 (from UniProt P51948 1-309) | binds
39 | Gluc1-CLK2 (from UniProt P49760 1-499) | binds
40 | Gluc1-RPA1 (from UniProt P27694 1-616) | binds

biological target: 3xFLAG-HPV16 E6 (HPV16) (UniProt P03126); assay: co-IP; HEK-293T co-transfected with pCineo-3xFLAG HPV16 E6 or E7 and pSpica-N1 (Gluc1 fusion); lysis in 50 mM Tris-HCl pH7.4, 150 mM NaCl, 1 mM EDTA, 1% Triton X-100; anti-Flag M2 magnetic beads overnight; blot with anti-Gaussia luciferase antibody

Row | Molecule | binding
41 | Gluc1-UVSSA (from UniProt Q2YD98 1-709) | binds
42 | Gluc1-XRCC6 (from UniProt P12956 1-609) | binds
43 | Gluc1-MNAT1 (from UniProt P51948 1-309) | binds
44 | Gluc1-CLK2 (from UniProt P49760 1-499) | binds
45 | Gluc1-RPA1 (from UniProt P27694 1-616) | binds

biological target: 3xFLAG-HPV16 E7 (HPV16) (UniProt P03129); assay: as above

Row | Molecule | binding
46 | B1 | binds
47 | B2 | binds
48 | B3 | binds
49 | B4 | binds
50 | B5 | binds
